Positions count from the first letter of the chain named. Numbers in names are those of the source. Results are given in words; binding and its absence hold for the method and conditions named. In cells and extracts the contact can be indirect. Some binding calls cover weakened binding; strength is not graded here. Tags and fused reporters may be left off the sequences shown. Blank lines part the entries; values can stand above or below the binder they belong to.
Key:
[1] = biological target: axin1 (endogenous) (human (endogenous in HEK293)) (UniProt O15169); test: co-IP; semiendogenous: DVL KO HEK293 cells transfected with DVL1 plasmids, lysate; immunoprecipitation of endogenous axin1 or CK1ε with 1 μg antibody and protein G-Sepharose, overnight, 6 washes; cells with control or Wnt3a treatment; unspecific IgG as negative control
[2] = biological target: CK1ε (endogenous) (human (endogenous in HEK293)) (UniProt P49674); test: as above

Chains of the proteins cited; added tags and fusions are not shown.
UniProt O15169: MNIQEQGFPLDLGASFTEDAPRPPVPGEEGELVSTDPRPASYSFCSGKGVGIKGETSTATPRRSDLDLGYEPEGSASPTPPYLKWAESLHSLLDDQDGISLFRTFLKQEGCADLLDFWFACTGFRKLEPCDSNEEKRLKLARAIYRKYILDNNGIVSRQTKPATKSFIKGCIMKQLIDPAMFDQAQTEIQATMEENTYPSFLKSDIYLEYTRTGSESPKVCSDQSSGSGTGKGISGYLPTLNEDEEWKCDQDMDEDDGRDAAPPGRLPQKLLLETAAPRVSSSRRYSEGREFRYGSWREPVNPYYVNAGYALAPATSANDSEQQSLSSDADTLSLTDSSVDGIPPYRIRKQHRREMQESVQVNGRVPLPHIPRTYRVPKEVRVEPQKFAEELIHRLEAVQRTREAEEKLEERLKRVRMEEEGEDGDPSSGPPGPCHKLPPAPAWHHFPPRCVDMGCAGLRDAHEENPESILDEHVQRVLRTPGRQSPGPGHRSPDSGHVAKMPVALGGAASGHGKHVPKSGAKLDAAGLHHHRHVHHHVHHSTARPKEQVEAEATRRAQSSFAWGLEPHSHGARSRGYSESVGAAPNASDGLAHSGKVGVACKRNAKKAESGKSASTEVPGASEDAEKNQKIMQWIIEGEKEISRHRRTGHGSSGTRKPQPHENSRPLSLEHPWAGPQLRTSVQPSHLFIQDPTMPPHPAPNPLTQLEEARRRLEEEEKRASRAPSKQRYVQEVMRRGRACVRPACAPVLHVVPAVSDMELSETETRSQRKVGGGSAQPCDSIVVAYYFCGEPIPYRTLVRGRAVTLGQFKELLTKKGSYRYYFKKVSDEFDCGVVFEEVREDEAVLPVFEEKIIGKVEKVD
UniProt P49674: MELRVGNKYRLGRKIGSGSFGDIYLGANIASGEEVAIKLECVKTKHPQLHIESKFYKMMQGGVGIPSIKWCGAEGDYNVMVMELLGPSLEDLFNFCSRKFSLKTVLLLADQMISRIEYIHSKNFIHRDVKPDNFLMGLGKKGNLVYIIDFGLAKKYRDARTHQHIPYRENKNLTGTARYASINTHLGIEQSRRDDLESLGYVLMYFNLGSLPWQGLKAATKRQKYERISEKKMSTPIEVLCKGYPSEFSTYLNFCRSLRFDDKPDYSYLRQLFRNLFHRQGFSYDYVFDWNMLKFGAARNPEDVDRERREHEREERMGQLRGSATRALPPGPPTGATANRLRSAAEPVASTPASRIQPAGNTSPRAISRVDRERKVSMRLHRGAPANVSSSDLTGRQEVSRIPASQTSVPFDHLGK

binding [1]: binds
binding [2]: binds
B1: full-length (FL) DVL1 (pcDNA3-Flag-mDVL1) (protein, UniProt P51141 1-695)
chain: MAETKIIYHMDEEETPYLVKLPVAPERVTLADFKNVLSNRPVHAYKFFFKSMDQDFGVVKEEIFDDNAKLPCFNGRVVSWLVLAEGAHSDAGSQGTDSHTDLPPPLERTGGIGDSRPPSFHPNVASSRDGMDNETGTESMVSHRRERARRRNRDEAARTNGHPRGDRRRDLGLPPDSASTVLSSELESSSFIDSDEEDNTSRLSSSTEQSTSSRLVRKHKCRRRKQRLRQTDRASSFSSITDSTMSLNIITVTLNMERHHFLGISIVGQSNDRGDGGIYIGSIMKGGAVAADGRIEPGDMLLQVNDVNFENMSNDDAVRVLREIVSQTGPISLTVAKCWDPTPRSYFTIPRADPVRPIDPAAWLSHTAALTGALPRYGTSPCSSAITRTSSSSLTSSVPGAPQLEEAPLTVKSDMSAIVRVMQLPDSGLEIRDRMWLKITIANAVIGADVVDWLYTHVEGFKERREARKYASSMLKHGFLRHTVNKITFSEQCYYVFGDLCSNLASLNLNSGSSGASDQDTLAPLPHPSVPWPLGQGYPYQYPGPPPCFPPAYQDPGFSCGSGSAGSQQSEGSKSSGSTRSSHRTPGREERRATGAGGSGSESDHTVPSGSGSTGWWERPVSQLSRGSSPRSQASAVAPGLPPLHPLTKAYAVVGGPPGGPPVRELAAVPPELTGSRQSFQKAMGNPCEFFVDIM

binding [1]: binds
binding [2]: binds
B2: DVL1(1–502) (pcDNA3-Flag-mDVL1 aa 1 to 502) (domain or fragment, UniProt P51141 1-502)
chain: MAETKIIYHMDEEETPYLVKLPVAPERVTLADFKNVLSNRPVHAYKFFFKSMDQDFGVVKEEIFDDNAKLPCFNGRVVSWLVLAEGAHSDAGSQGTDSHTDLPPPLERTGGIGDSRPPSFHPNVASSRDGMDNETGTESMVSHRRERARRRNRDEAARTNGHPRGDRRRDLGLPPDSASTVLSSELESSSFIDSDEEDNTSRLSSSTEQSTSSRLVRKHKCRRRKQRLRQTDRASSFSSITDSTMSLNIITVTLNMERHHFLGISIVGQSNDRGDGGIYIGSIMKGGAVAADGRIEPGDMLLQVNDVNFENMSNDDAVRVLREIVSQTGPISLTVAKCWDPTPRSYFTIPRADPVRPIDPAAWLSHTAALTGALPRYGTSPCSSAITRTSSSSLTSSVPGAPQLEEAPLTVKSDMSAIVRVMQLPDSGLEIRDRMWLKITIANAVIGADVVDWLYTHVEGFKERREARKYASSMLKHGFLRHTVNKITFSEQCYYVFGDLCS

binding [1]: binds
binding [2]: binds
B3: DVL1(1–502) K438M mutant (domain or fragment, UniProt P51141 1-502)
chain: B2 chain with K438M

binding [1]: binds weakly
binding [2]: binds weakly
B4: DVL1(1–502) ΔLPDSG mutant (domain or fragment, UniProt P51141)
chain: MAETKIIYHMDEEETPYLVKLPVAPERVTLADFKNVLSNRPVHAYKFFFKSMDQDFGVVKEEIFDDNAKLPCFNGRVVSWLVLAEGAHSDAGSQGTDSHTDLPPPLERTGGIGDSRPPSFHPNVASSRDGMDNETGTESMVSHRRERARRRNRDEAARTNGHPRGDRRRDLGLPPDSASTVLSSELESSSFIDSDEEDNTSRLSSSTEQSTSSRLVRKHKCRRRKQRLRQTDRASSFSSITDSTMSLNIITVTLNMERHHFLGISIVGQSNDRGDGGIYIGSIMKGGAVAADGRIEPGDMLLQVNDVNFENMSNDDAVRVLREIVSQTGPISLTVAKCWDPTPRSYFTIPRADPVRPIDPAAWLSHTAALTGALPRYGTSPCSSAITRTSSSSLTSSVPGAPQLEEAPLTVKSDMSAIVRVMQLEIRDRMWLKITIANAVIGADVVDWLYTHVEGFKERREARKYASSMLKHGFLRHTVNKITFSEQCYYVFGDLCS

Reference: article PMC5574038
